The source of these data is the supplement of paper PMC12819154, “High-throughput peptide-centric local stability assay extends protein–ligand identification to membrane proteins, tissues and bacteria” (Nature Structural & Molecular Biology, 2025).

Amino acid sequences for entries named in this document (tags omitted). A change or cut given only in a name is not applied to a line headed by its entry.
UniProt Q8N2E2: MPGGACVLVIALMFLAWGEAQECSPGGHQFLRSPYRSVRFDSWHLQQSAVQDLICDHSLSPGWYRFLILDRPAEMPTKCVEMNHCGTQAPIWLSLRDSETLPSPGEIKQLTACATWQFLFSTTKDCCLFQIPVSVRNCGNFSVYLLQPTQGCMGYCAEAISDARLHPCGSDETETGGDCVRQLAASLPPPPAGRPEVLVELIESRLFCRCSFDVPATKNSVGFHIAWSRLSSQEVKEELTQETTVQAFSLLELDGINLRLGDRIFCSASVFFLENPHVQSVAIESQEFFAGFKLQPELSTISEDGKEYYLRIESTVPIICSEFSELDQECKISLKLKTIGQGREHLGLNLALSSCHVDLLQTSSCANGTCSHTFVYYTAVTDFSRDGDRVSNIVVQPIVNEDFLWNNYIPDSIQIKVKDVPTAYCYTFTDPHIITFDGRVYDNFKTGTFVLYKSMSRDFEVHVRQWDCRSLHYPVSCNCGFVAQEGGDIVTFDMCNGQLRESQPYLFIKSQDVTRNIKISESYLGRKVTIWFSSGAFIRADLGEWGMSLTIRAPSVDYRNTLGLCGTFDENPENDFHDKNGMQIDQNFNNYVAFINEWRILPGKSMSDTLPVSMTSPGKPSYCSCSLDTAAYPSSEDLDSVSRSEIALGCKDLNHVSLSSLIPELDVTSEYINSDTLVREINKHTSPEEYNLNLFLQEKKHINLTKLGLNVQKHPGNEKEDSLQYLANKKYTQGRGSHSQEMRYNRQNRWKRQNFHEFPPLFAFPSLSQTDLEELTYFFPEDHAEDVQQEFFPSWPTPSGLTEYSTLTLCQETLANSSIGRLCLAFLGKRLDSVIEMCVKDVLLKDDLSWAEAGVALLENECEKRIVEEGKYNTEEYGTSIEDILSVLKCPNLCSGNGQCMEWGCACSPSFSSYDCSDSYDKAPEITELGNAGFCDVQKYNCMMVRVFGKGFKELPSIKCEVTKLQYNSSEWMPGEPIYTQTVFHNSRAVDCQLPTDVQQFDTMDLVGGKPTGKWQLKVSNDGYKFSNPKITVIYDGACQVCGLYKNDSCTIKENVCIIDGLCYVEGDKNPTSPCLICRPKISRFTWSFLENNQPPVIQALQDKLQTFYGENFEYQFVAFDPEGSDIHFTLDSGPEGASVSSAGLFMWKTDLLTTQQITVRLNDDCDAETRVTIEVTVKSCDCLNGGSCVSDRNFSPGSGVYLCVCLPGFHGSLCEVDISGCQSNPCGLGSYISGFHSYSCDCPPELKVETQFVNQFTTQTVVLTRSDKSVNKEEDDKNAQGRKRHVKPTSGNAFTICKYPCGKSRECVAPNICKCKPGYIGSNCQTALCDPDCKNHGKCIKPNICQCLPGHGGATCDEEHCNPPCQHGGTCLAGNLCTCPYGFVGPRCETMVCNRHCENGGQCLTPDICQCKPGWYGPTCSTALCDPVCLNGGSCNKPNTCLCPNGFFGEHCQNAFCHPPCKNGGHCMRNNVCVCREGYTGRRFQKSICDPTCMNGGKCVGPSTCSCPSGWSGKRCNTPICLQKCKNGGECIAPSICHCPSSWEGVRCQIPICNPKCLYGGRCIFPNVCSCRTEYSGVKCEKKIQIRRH
UniProt Q8NCN5: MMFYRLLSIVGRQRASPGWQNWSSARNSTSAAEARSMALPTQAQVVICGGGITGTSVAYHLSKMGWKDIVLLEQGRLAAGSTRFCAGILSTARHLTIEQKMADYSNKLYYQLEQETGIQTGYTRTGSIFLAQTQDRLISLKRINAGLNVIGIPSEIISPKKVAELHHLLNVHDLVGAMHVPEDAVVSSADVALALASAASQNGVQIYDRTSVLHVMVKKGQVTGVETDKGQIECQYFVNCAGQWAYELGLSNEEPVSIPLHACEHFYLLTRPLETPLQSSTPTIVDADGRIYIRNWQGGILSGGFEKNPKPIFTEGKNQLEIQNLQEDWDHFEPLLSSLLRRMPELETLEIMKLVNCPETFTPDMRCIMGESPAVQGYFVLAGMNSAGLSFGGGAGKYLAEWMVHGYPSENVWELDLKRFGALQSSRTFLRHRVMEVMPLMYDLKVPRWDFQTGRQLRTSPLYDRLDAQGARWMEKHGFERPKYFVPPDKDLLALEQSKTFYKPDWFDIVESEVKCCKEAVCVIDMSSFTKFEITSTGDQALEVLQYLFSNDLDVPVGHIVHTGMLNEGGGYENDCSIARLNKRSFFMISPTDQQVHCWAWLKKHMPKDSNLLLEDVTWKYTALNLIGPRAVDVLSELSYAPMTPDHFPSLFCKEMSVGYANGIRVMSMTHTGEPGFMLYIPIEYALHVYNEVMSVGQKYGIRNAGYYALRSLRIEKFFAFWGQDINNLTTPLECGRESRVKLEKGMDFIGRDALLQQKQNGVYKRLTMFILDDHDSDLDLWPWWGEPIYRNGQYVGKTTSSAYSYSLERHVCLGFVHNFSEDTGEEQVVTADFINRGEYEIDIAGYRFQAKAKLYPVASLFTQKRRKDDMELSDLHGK
UniProt Q8NHP6: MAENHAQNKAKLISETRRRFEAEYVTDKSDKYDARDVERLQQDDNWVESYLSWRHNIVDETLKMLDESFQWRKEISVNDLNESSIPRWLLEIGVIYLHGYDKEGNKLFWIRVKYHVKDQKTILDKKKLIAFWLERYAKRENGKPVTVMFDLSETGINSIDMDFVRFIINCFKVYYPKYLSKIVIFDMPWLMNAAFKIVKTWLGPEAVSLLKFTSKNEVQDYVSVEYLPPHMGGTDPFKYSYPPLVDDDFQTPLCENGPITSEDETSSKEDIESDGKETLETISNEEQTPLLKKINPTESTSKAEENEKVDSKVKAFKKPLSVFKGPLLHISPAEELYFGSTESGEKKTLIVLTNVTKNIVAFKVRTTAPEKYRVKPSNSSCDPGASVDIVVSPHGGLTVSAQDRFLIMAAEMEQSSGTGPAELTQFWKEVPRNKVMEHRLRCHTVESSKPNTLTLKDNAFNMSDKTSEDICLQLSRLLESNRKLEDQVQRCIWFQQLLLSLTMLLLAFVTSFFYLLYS
UniProt Q8NI08: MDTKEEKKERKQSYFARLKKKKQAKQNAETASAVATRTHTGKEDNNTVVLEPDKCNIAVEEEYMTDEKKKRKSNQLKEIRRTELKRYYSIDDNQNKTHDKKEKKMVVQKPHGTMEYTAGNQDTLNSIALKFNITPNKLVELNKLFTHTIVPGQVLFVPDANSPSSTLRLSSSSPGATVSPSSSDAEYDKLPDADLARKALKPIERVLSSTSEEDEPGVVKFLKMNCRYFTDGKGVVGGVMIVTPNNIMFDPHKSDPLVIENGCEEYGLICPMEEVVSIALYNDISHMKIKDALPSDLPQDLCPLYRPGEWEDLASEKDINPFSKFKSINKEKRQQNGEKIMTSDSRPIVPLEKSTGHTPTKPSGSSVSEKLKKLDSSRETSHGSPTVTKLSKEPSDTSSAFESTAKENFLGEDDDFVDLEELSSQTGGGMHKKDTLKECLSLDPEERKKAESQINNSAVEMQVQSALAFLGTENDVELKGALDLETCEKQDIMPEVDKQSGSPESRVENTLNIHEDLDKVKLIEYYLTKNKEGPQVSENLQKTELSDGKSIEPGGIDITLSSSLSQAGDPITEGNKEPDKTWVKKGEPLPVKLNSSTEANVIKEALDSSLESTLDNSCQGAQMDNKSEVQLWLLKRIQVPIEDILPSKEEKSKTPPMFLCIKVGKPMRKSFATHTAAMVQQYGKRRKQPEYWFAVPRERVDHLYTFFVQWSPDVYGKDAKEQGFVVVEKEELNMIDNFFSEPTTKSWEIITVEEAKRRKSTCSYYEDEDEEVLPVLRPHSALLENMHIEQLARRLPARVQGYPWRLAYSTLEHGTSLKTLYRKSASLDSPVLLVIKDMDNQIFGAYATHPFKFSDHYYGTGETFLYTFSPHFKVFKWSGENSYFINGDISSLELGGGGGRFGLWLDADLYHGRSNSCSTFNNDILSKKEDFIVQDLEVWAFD
UniProt Q8NB14: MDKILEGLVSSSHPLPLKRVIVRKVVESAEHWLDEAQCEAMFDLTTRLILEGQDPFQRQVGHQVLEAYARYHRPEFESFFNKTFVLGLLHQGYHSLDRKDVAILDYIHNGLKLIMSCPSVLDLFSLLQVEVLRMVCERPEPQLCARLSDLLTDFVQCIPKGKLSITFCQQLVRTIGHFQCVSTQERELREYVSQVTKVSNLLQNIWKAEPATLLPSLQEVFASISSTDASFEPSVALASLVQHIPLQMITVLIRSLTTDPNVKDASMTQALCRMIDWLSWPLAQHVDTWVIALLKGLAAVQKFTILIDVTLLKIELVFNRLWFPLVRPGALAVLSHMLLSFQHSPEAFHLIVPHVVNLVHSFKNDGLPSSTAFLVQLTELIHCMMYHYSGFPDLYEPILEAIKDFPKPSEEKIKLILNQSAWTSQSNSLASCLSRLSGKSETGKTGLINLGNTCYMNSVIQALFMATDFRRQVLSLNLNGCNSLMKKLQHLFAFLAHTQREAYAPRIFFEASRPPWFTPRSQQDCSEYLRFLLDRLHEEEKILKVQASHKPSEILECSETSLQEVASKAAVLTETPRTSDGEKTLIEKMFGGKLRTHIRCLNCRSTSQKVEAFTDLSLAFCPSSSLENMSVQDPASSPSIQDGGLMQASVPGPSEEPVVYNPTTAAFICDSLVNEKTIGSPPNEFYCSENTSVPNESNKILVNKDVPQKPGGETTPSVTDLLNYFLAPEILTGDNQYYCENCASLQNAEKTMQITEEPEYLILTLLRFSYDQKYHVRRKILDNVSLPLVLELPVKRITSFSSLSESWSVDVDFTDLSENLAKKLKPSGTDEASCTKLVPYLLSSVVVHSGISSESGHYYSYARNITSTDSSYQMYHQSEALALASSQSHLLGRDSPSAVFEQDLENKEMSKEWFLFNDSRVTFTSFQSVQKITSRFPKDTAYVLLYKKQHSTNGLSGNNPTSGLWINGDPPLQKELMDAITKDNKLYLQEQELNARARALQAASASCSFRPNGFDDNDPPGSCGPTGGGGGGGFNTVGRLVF
UniProt Q8N7B6: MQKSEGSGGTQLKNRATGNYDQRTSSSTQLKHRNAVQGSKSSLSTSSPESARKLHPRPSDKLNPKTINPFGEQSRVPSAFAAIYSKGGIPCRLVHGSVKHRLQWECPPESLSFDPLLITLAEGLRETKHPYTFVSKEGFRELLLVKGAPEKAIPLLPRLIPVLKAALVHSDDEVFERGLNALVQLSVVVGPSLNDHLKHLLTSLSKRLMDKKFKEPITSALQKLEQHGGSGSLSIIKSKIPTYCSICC
UniProt Q8N9M1: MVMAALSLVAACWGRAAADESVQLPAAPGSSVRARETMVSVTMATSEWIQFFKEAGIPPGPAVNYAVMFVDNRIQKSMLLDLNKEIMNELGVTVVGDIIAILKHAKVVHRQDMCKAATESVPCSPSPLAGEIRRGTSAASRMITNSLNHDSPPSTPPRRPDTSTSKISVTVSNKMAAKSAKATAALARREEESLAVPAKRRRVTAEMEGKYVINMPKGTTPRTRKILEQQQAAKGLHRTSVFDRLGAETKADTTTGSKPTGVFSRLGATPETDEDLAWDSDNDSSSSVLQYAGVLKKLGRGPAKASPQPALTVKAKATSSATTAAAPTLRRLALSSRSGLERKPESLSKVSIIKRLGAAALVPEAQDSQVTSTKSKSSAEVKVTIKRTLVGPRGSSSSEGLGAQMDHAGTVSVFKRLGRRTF
UniProt Q8N883: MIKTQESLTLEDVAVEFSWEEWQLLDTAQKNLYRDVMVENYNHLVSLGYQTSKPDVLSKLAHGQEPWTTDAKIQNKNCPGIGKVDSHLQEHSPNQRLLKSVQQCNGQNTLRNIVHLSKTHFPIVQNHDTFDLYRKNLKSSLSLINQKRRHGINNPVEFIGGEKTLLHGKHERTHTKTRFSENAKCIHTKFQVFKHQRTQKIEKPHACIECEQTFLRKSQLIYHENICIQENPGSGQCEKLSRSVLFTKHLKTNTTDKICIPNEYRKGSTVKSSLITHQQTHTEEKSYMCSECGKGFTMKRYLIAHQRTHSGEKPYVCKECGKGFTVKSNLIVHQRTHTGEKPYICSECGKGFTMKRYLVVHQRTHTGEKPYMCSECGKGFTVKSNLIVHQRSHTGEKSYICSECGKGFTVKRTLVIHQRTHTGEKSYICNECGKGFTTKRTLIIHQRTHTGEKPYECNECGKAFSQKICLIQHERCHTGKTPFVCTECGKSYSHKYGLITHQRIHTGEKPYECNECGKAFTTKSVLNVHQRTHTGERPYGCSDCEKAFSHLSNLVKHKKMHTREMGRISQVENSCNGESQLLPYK
UniProt Q8NCA9: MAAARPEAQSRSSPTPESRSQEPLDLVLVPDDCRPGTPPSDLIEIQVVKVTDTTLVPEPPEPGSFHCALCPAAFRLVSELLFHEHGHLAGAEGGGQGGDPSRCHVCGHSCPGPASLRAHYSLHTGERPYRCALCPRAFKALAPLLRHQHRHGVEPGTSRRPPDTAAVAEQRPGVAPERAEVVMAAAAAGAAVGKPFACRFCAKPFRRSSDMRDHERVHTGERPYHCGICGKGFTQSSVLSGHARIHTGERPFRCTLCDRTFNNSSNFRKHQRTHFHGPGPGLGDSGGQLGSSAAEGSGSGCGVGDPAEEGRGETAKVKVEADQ

The other results are listed elsewhere or left out. Small differences around the control level are noise.

Compound in this test: Cc1nc(Nc2ncc(C(=O)Nc3c(C)cccc3Cl)s2)cc(N2CCN(CCO)CC2)n1 [dasatinib]
Description: log2 fold change of tryptic peptide abundance, ligand vs vehicle (limited proteolysis) (log2 ratio); higher = more trypsin-susceptible (destabilized). As to conditions: ligand concentration: 5 uM; sample: K562 cleared lysate.
On to “UniProt Q8N2M8 (peptide sequence: EKEREEWER, peptide start residue: 631)”, for which the log2 fold change was -0.0845.
For “UniProt Q8NHQ1 (peptide sequence: DLETRPTQHELR, peptide start residue: 286)” the value was -0.00851; for “VWDE (peptide sequence: NNVCVCREGYTGR, peptide start residue: 1471) (UniProt Q8N2E2)”, 0.462.
Regarding “PDPR (peptide sequence: HLTIEQK, peptide start residue: 94) (UniProt Q8NCN5)”, the log2 fold change was determined as 0.62.
Consider “MOSPD2 (peptide sequence: KINPTESTSK, peptide start residue: 293) (UniProt Q8NHP6)”, for which the log2 fold change was -0.308.
For “NCOA7 (peptide sequence: QNAETASAVATR, peptide start residue: 26) (UniProt Q8NI08)” the value was 0.123; for “UniProt Q8N357 (peptide sequence: GRPLAEESEQER, peptide start residue: 347)”, 0.0372; for “UniProt Q8NFP7 (peptide sequence: PVHAEYLEK, peptide start residue: 134)”, 0.436.
The same measure for “UniProt Q8N5L8 (peptide sequence: HVVFSGSGR, peptide start residue: 54)”: -0.253.
For “USP38 (peptide sequence: ILEGLVSSSHPLPLKR, peptide start residue: 4) (UniProt Q8NB14)” the value was -0.209; for “PACRGL (peptide sequence: TINPFGEQSR, peptide start residue: 66) (UniProt Q8N7B6)”, -0.295.
For the target “NUP35 (peptide sequence: HVMSNTGNWMHIR, peptide start residue: 202) (UniProt Q8NFH5)”, the log2 fold change is -0.346.
For “UniProt Q8N587 (peptide sequence: AVTASSHLK, peptide start residue: 233)” the value was -0.291; for “UniProt Q8N823 (peptide sequence: CEECDKVFSR, peptide start residue: 511)”, -0.318.
In the case of “RNF214 (peptide sequence: EVWEMELDR, peptide start residue: 321) (UniProt Q8ND24)”, the log2 fold change came out at 0.198.
Regarding “TMEM87A (peptide sequence: MITHFER, peptide start residue: 545) (UniProt Q8NBN3)”, the log2 fold change is -0.0479.
For “CRACR2B (peptide sequence: TQLEGAQEQIR, peptide start residue: 293) (UniProt Q8N4Y2)” the value was 0.256; for “UniProt Q8NCY6 (peptide sequence: SAYDEPHLLVNIEK, peptide start residue: 196)”, -0.154.
The same measure for “RUSC2 (peptide sequence: NPGCSGSGDQHCR, peptide start residue: 239) (UniProt Q8N2Y8)”: 1.48.
Regarding “C19orf47 (peptide sequence: ADTTTGSKPTGVFSR, peptide start residue: 251) (UniProt Q8N9M1)”, the log2 fold change is -0.284.
For “ANKLE1 (peptide sequence: SQGTEAELNAR, peptide start residue: 264) (UniProt Q8NAG6)” the value was 0.185; for “UniProt Q8N883 (peptide sequence: LAHGQEPWTTDAK, peptide start residue: 60)”, -0.152; for “NATD1 (peptide sequence: AVLLYEYVGKR, peptide start residue: 41) (UniProt Q8N6N6)”, -0.351.
For “IPMK (peptide sequence: VEAPGPPEMR, peptide start residue: 11) (UniProt Q8NFU5)”, the log2 fold change was -0.0914.
“SUPT20H (peptide sequence: AGNCVDMWK, peptide start residue: 286) (UniProt Q8NEM7)”: the log2 fold change is -0.369.
For “UniProt Q8NBU5 (peptide sequence: HLFENSR, peptide start residue: 115)” the value was 0.269.
For “USP32 (peptide sequence: IGFLSYEEALR, peptide start residue: 8) (UniProt Q8NFA0)” the value was -0.416; for “DDX51 (peptide sequence: WLAEPNCVR, peptide start residue: 181) (UniProt Q8N8A6)”, -0.148; for “UniProt Q8NCA9 (peptide sequence: CHVCGHSCPGPASLR, peptide start residue: 103)”, 0.242.
